In all, about 360,000 compounds went through this assay and about 1,700 (0.47%) were called active. This list was built around the results that the source calls inconclusive (neither active nor inactive); the mix of calls is not that of the screen. Calls follow the shape of the dose curve; as a rule, active = well fitted inhibition curve with a large enough effect; inconclusive = small, poorly fitted or top-dose-only effect; inactive = no such curve, though single readings can be large or run the other way. A potency beside an inconclusive call is a rough fit, not a confirmed value.
target: Bifunctional 3'-5' exonuclease/ATP-dependent helicase WRN (Homo sapiens) (UniProt Q14191); assay: qHTS for Inhibitors of WRN Helicase; conditions: WRN helicase unwinding, fluorescent forked duplex, kinetic; series mostly up to 114 µM; also: nearly all actives have a fitted effect of over 55% in size
Method in brief: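 WRN at 20 nM final was preincubated with compound for 15 min at room temperature; reaction started with 100 nM forked duplex oligonucleotide carrying fluorophore and quencher plus 2 mM ATP (final). Unwinding followed kinetically by red fluorescence (ex 525/em 598 nm).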
Potency is read from the fitted curve at half-maximal effect.

Sequences of proteins named here, by UniProt entry; tags and fusion partners are left off.
UniProt Q14191, whole entry, looked up: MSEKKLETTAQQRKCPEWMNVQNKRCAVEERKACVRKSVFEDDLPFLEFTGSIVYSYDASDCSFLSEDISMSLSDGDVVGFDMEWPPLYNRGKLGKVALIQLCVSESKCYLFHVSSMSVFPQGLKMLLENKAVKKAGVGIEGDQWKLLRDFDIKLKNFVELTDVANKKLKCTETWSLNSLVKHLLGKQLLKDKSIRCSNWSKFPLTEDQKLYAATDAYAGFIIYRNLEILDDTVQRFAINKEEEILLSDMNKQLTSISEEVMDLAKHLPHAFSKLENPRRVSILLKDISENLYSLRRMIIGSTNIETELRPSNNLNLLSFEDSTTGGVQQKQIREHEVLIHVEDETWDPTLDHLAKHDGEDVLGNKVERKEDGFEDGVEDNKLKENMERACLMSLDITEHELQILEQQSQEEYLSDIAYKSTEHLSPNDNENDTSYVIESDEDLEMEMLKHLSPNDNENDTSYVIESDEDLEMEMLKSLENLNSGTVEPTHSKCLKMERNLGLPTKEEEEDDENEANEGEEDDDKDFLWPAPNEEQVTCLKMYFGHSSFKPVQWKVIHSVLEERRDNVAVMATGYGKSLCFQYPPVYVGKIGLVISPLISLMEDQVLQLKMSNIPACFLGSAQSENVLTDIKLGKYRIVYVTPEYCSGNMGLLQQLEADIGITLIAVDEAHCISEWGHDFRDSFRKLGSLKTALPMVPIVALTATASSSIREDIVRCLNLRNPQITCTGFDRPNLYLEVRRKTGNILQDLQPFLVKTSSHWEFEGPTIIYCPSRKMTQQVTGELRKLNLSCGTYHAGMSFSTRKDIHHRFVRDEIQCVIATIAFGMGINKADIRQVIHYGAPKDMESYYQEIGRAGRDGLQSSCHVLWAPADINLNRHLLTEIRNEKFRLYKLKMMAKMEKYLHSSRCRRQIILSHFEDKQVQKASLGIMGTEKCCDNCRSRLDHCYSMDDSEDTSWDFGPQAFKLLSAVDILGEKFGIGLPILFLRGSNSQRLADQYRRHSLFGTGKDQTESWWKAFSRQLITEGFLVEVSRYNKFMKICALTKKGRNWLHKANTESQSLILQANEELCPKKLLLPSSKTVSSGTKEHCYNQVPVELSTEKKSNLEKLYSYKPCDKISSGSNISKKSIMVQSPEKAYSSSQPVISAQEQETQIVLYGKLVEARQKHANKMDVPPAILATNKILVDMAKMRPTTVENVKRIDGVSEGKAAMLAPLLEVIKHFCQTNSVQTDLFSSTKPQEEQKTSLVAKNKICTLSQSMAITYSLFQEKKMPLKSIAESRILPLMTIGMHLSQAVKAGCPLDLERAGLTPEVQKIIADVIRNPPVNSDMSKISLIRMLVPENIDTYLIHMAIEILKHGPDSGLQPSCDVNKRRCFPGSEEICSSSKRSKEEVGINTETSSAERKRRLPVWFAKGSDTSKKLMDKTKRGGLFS

Row | SMILES | Potency
1 | CCCOC1CCCN(C(=O)c2ccc(OC)c(OC3CCN(C(C)C)CC3)c2)C1 (configuration not stated) | inconclusive: 89.1 µM [inhibitor, single point]
2 | Cc1cc(C)c2nc(-c3ccco3)cc(C(=O)O)c2c1 | inconclusive: 39.8 µM [inhibitor, partial curve]
3 | C=CCn1c(O)c(N=NC(=O)CNC(=O)/C=C/c2ccco2)c2ccccc21 | inconclusive: 11.9 µM [inhibitor, partial curve]
4 | Cc1ccc2c(CC(=O)N3CCN(S(=O)(=O)c4ccccc4)CC3)coc2c1 | inconclusive: 50.1 µM [inhibitor, partial curve]
5 | O=C(O)c1cc2cccc(S(=O)(=O)N3CCCCC3)c2cc1O | inactive
6 | O=C1/C(=C\c2cc([N+](=O)[O-])ccc2O)SC(=S)N1Cc1ccc(Cl)cc1 | active: 5.97 µM
7 | Cc1cc(N2CCCC2)ccc1/C=C1\NC(=S)N(C)C1=O | inconclusive: 100 µM [inhibitor, partial curve, poor fit]
8 | COc1ccc(-n2c(C)cc(/C=C/c3nc(O)c([N+](=O)[O-])c(=O)[nH]3)c2C)cc1 | inactive
9 | CN(C)c1ccc(C=c2c3cc(O)ccc3n3c2cc(-c2ccccc2)[n+]3C)cc1 | active: 17.8 µM
10 | O=C(CN1C(=O)c2ccccc2S1(=O)=O)c1ccc(OC(F)F)cc1 | inconclusive: 39.8 µM [inhibitor, full curve, poor fit]
11 | [O-]/[N+](=C\c1ccncc1)c1ccccc1 | inconclusive: 56.2 µM [inhibitor, partial curve]
12 | N#C/C(=C/c1ccccc1)C(=O)NCc1ccccc1 | inactive
13 | O=C(NC(=S)N1CCCc2ccccc21)c1ccc(Cl)cc1 | inactive
14 | C=CCNC(=O)Cc1ccc(S(=O)(=O)N2CCOCC2)s1 | inactive
15 | C#CCOCCOCCOCCNc1nc(N2CCN(C(=O)CCCCCCCCCCNC(=O)[C@H]([C@@H](C)CC)n3cc(CCCCCN)nn3)CC2)nc(N2CCN(C(=O)CCCCCCCCCCNC(=O)[C@H](CCCCN)n3cc(CCCC(=O)O)nn3)CC2)n1 | inactive
16 | NC(=O)c1c(Nc2nc3c(F)cccc3s2)sc2c1CCCC2 | inconclusive: 28.2 µM [inhibitor, single point]
17 | CCC(C)Sc1ccc([C@H]2N[C@@](CC(C)C)(C(=O)OC)[C@H]3C(=O)N(C)C(=O)[C@@H]23)cc1 (some centres not stated) | inconclusive: 3.16 µM [inhibitor, partial curve, poor fit]
18 | Cc1sc(NC(=O)C2CCCO2)c(C(N)=O)c1C (configuration not stated) | inactive
19 | COc1ccc(-c2ccc3c(c2)S(=O)(=O)c2cccc(C(=O)NCCOc4ccccc4Cl)c2C3=O)cc1OC | inconclusive: 2.67 µM [inhibitor, partial curve]
20 | Cc1cc(/C=C2\SC(=O)N(C)C2=O)c(C)n1-c1ccc(O)cc1 | inactive
21 | Cc1cc(C(F)(F)F)nn1Cc1n[nH]c(=S)n1-c1ccc(Cl)cc1 | inactive
22 | CCN(Cc1ccccc1)S(=O)(=O)c1ccccc1Br | inactive
23 | COc1cccc(F)c1C(C[N+](=O)[O-])c1c(N)n(C)c(=O)n(C)c1=O (configuration not stated) | inactive
24 | COc1ccccc1OCC(=O)Nc1ccc2c(c1)OCO2 | inconclusive: 89.1 µM [inhibitor, single point]

6 entries drawn at random from the list so far:
Row | SMILES | Potency
17 | CCC(C)Sc1ccc([C@H]2N[C@@](CC(C)C)(C(=O)OC)[C@H]3C(=O)N(C)C(=O)[C@@H]23)cc1 (some centres not stated) | inconclusive: 3.16 µM [inhibitor, partial curve, poor fit]
4 | Cc1ccc2c(CC(=O)N3CCN(S(=O)(=O)c4ccccc4)CC3)coc2c1 | inconclusive: 50.1 µM [inhibitor, partial curve]
10 | O=C(CN1C(=O)c2ccccc2S1(=O)=O)c1ccc(OC(F)F)cc1 | inconclusive: 39.8 µM [inhibitor, full curve, poor fit]
22 | CCN(Cc1ccccc1)S(=O)(=O)c1ccccc1Br | inactive
3 | C=CCn1c(O)c(N=NC(=O)CNC(=O)/C=C/c2ccco2)c2ccccc21 | inconclusive: 11.9 µM [inhibitor, partial curve]
5 | O=C(O)c1cc2cccc(S(=O)(=O)N3CCCCC3)c2cc1O | inactive

(cont.)

Row | SMILES | Potency
25 | CCOC(=O)C1=C(c2ccccc2)N=c2s/c(=C\c3ccco3)c(=O)n2C1c1cccs1 (configuration not stated) | inconclusive: 56.2 µM [inhibitor, partial curve]
26 | O=c1c(C(c2ccc(O)cc2)c2c(O)nc3n(c2=O)CCCS3)c(O)nc2n1CCCS2 | inconclusive: 16.8 µM [inhibitor, partial curve]
27 | Nc1cc2c(cc1Br)-c1ccccc1C2=NO | inconclusive: 14.1 µM [inhibitor, single point]
28 | O=C(Nc1ccccc1)c1ccc2nc(-c3ccco3)c(-c3ccco3)nc2c1 | active: 39.8 µM
29 | Cc1ccc2nc(Cl)c(C3CC(c4cccs4)=NN3C(=O)CCCC(=O)O)cc2c1 (configuration not stated) | inactive
30 | Cc1ccc(NC(=O)c2ccc3c(c2)CCN3S(C)(=O)=O)cc1C | inconclusive: 89.1 µM [inhibitor, partial curve]
31 | COc1ccccc1Nc1nnc(SCC(=O)N2CCCC2=O)s1 | inactive
32 | O=C(O)c1ccc(COc2ccc3ccccc3c2/C=C2/NC(=O)N(c3ccccc3)C2=O)cc1 | inactive
33 | COc1ccc(/C=N/NC(=O)c2cccs2)c2ccccc12 | inconclusive: 15.8 µM [inhibitor, single point]
34 | O=c1/c(=C\c2cc([N+](=O)[O-])cc([N+](=O)[O-])c2O)sc2nc3ccccc3n12 | active: 35.5 µM
35 | CCOC(=O)/C(C#N)=C\c1ccc(N2CCN(C/C=C/c3ccccc3)CC2)cc1 | inconclusive: 28.2 µM [inhibitor, single point]
36 | N#CC1=C(N)Oc2n[nH]c(-c3ccccc3)c2C1c1cccnc1 (configuration not stated) | inactive
37 | COc1cccc(C(=O)NCc2ccc3c(c2)cc(C)n3C)c1 | inconclusive: 39.8 µM [inhibitor, single point]
38 | Cc1ccc(Cn2c(C(C)Nc3nc(-c4ccc(C)cc4)cs3)nc3cc(Cl)c(Cl)cc32)cc1 (configuration not stated) | inconclusive: 56.2 µM [inhibitor, partial curve]
39 | O=C(O)c1ccc(-n2cccc2/C=N\NC(=O)c2cc3cc(Br)ccc3o2)cc1 | active: 39.8 µM
40 | Cc1oc(C)c2c(=O)ccc3c(c12)OC(N)=C(C#N)C3c1ccccc1 (configuration not stated) | inconclusive: 79.4 µM [inhibitor, single point]
41 | COc1cccc2sc(N3CCN(C(=O)c4ccc([N+](=O)[O-])o4)CC3)nc12 | inconclusive: 17.8 µM [inhibitor, full curve, poor fit]
42 | COc1cc(OC)c(NC2=CC(=O)C(=O)c3ccccc32)cc1Cl | inactive
43 | CCc1ccc(CNCCNC(=O)c2ccco2)cc1 | inactive
44 | COc1cc(-c2noc(C)c2/C=C/c2ccc(C(=O)O)cc2)cc(OC)c1OC | inconclusive: 50.1 µM [inhibitor, partial curve]
45 | O=C1NC(=O)C(c2cn(-c3ccccc3)nc2-c2ccc(F)cc2)N1 (configuration not stated) | inconclusive: 89.1 µM [inhibitor, single point]
46 | CCN(CC(=O)NCc1ccc(F)cc1)C(=O)CN1CCN(c2ccc(OC)cc2)CC1 | inconclusive: 25.1 µM [inhibitor, partial curve]
47 | Cc1ccc(C)n1C(CC(=O)O)c1ccc(C#N)cc1 (configuration not stated) | inconclusive: 50.1 µM [inhibitor, partial curve]
48 | Cc1ccc(/C=c2\sc3nc(-c4ccco4)nn3c2=O)o1 | active: 56.2 µM

Row | SMILES | Potency
49 | Cc1ccc(N2C(=O)c3ccccc3C2C(=O)c2ccc(O)cc2O)cc1 (configuration not stated) | inconclusive: 16.8 µM [inhibitor, partial curve]
50 | O=c1cc(-c2ccc(O)c(-c3c(O)cc(O)c4c(=O)cc(-c5ccc(O)cc5)oc34)c2)oc2cc(O)cc(O)c12 | inconclusive: 50.1 µM [inhibitor, partial curve]
51 | O=C1C(=O)c2c(C(=O)c3ccccc3)coc2-c2ccccc21 | inconclusive: 39.8 µM [inhibitor, partial curve]
52 | CN(C)c1nc2c(cnn2C)c(=O)[nH]1 | inactive
53 | Cc1ccc(CN(C)C(=O)CCc2nc3sc4c(c3c(=O)[nH]2)CCCC4)o1 | inconclusive: 44.7 µM [inhibitor, partial curve]
54 | COc1ccc(NC(=S)NNC(=S)Nc2cccc(C(F)(F)F)c2)cc1 | inconclusive: 56.2 µM [inhibitor, partial curve]
55 | CC1CCN(C(=O)c2ncn3c2c(=O)[nH]c2ccc(Br)cc23)CC1 | inactive
56 | COc1ccccc1CNC(=O)c1cc(S(=O)(=O)N2CCN(c3ccccc3)CC2)ccc1Cl | inconclusive: 28.2 µM [inhibitor, partial curve]
57 | CNC(=S)N/N=C/c1ccc(-c2ccc(Cl)c([N+](=O)[O-])c2)o1 | inconclusive: 22.4 µM [inhibitor, single point]
58 | Cc1oc2c(C)c3oc(=O)c(CCC(=O)NCCCN4CCOCC4)c(C)c3cc2c1C | inactive
59 | Cc1nc2cc(-c3ccsc3-n3c(C)ccc3C)[nH]n2c(=O)c1Cl | inconclusive: 8.91 µM [inhibitor, full curve]
60 | O=C(NNc1cc(Br)c(O)c(Br)c1)c1ccccc1 | inactive
61 | Cc1ccc2nc(NC(=O)CSCC(=O)OCC(=O)c3ccc(Br)cc3)sc2c1 | inconclusive: 39.8 µM [inhibitor, full curve, poor fit]
62 | CCOc1ccc(Nc2ncnc3ccc([N+](=O)[O-])cc23)cc1 | inactive
63 | COC(=O)C(NC(=O)c1ccccc1)C(C)(C)SCc1ccccc1 (configuration not stated) | inactive
64 | C=CCOc1c(Br)cc(/C=N/Nc2ccc(C(=O)O)cc2)cc1OCC | inconclusive: 89.1 µM [inhibitor, partial curve]
65 | c1ccc(C(c2nnnn2C2CCCCC2)N2CCc3ccccc3C2)nc1 (configuration not stated) | inactive
66 | O=C(Cn1cc(COc2cc(F)cc(F)c2)nn1)c1ccc(O)cc1 | inactive
67 | S=c1[nH]nc(-c2cc(-c3ccccc3)n[nH]2)n1/N=C/c1c2ccccc2cc2ccccc12 | active: 50.1 µM
68 | Brc1ccc2nc(-c3ccco3)c(CC3CCCCC3)n2c1 | inconclusive: 89.1 µM [inhibitor, partial curve]
69 | NC(=O)c1cc(S(=O)(=O)N2CCc3ccccc3C2)cs1 | inactive
70 | COC(=O)CSc1nc(N)c(C#N)c(-c2ccco2)c1C#N | inactive
71 | O=C(c1cccc(-n2cccc2)c1)N1CCN(S(=O)(=O)c2ccccc2)CC1 | active: 17.8 µM
72 | C#CCOCCOCCOCCNc1nc(N2CCN(C(=O)CCCCCCCCCCNC(=O)[C@@H](CCSC)n3cc(CCO)nn3)CC2)nc(N2CCN(C(=O)CCCCCCCCCCNC(=O)[C@H]([C@@H](C)CC)n3cc(CCCCCN)nn3)CC2)n1 | inconclusive: 56.2 µM [inhibitor, partial curve]
